No constants are given. Whether binding was seen depends on the method and setting. Some binding calls cover weakened binding; strength is not graded here.
Target: HBX2 gp140 (gp120+the extracellular portion of gp41) on CHO cells (CHO-gp140) (HIV, strain HBX2 (so in the source)) (UniProt P04578)
Assay: flow cytometry on CHO-gp140 cells, antibody at 30 µg/mL, AlexaFluor 647 anti-human kappa detection

B1: HIV02 IgG (HIV02G) (antibody, V domains shown)
VH: QVQLVQSGGQMKKPGESMRISCQASGYEFIDCTLNWVRLAPGRRPEWMGWLKPRGGAVNYARPLQGRVTMTRDVYSDTAFLELRSLTADDTAVYYCTRGKNCDYNWDFEHWGRGTPVTVSS
VL: EIVLTQSPGTLSLSPGETAIISCRTSQYGSLAWYQQRPGQAPRLVIYSGSTRAAGIPDRFSGSRWGPDYNLTIRNLESGDFGLYYCQQYEFFGQGTKVQVDI
  binding: binds
